Patent US10745396B2, “Pesticidally active polycyclic derivatives with sulfur containing substituents” (Syngenta Participations AG, priority 2015, dated 2020)
Some results were stated once for a whole list of compounds, not compound by compound.

System: Anopheles stephensi (Indian Malaria Mosquito)
Assay: Anopheles stephensi, dry deposits in tissue culture plates, adult females
Type: in vivo
Details: application rate of 200 ppm in ethanol; after 48 h and/or 24 h

For `CCn1c(C(F)(F)F)cc2nc(-c3nc(-n4ccc(C(F)(F)F)n4)ccc3S(=O)(=O)CC)n(C)c2c1=O` [Compound P3, 5-ethyl-2-[3-ethylsulfonyl-6-[3-(trifluoromethyl)pyrazol-1-yl]-2-pyridyl]-3-methyl-6-(trifluoromethyl)imidazo[4,5-c]pyridin-4-one], the “control of Anopheles st.” value was “at least 80%”.
For `CCn1c(C(F)(F)F)cc2nc(-c3nc(-c4ccc(C(F)(F)F)cc4)ccc3S(=O)(=O)CC)n(C)c2c1=O` [Compound P2, 5-ethyl-2-[3-ethylsulfonyl-6-[4-(trifluoromethyl)phenyl]-2-pyridyl]-3-methyl-6-(trifluoromethyl)imidazo[4,5-c]pyridin-4-one], the “control of Anopheles st.” value was “at least 80%”.
